The subject of assay [1] is mice. As to the kind of experiment: Hot-plate test (acute thermal nociception). The format is in vivo. The settings on record: Mus musculus, sc, 0.5 h, s.c., 30 min after administration, read-out: ED50 (95% CL) Hot-plate test. (In hot-plate and tail-flick tests a longer latency is read as antinociception.)
For assay [2], the system named is mice. The assay can be described thus: Tail-flick test (acute thermal nociception). Type of assay: in vivo. The settings on record: Mus musculus, sc, 0.5 h, s.c., 30 min after administration, read-out: ED50 (95% CL) Tail-flick test.

The term ED50 denotes the midpoint of the dose-response relation. Turning to `CN1CC[C@]23c4c5ccc(O)c4O[C@H]2[C@@H](O)C=C[C@H]3[C@H]1C5` [Morphine, reference compound], the ED50 in assay [1] was determined as 2.43 mg/kg; in assay [2], 3.06 mg/kg.

(Values after PMC4053365 (PLoS ONE, 2014).)
